Data taken from PMC10093951.
These are yes or no findings as the source states them, for the method shown. In cells and extracts the contact can be indirect. Some entries that bind do so weakly or less than the wild type.

Sequences of proteins named here, by UniProt entry; tags and fusion partners are left off.
UniProt P30536: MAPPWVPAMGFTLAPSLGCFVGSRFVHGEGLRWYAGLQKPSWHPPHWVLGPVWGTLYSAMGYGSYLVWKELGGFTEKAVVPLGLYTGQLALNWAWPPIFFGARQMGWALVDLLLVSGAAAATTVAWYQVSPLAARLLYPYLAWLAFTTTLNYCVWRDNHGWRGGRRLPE
UniProt Q5BJF2: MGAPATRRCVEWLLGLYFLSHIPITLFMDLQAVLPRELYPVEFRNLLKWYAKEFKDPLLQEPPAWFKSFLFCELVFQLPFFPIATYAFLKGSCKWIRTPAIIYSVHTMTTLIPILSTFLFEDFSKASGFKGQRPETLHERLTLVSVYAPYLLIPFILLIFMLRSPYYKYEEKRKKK

Columns and labels:
[1] = molecular target: translocator protein (TSPO) (human (endogenous in MCF7 and MIA PaCa-2)) (UniProt P30536); assay: proximity ligation; Duolink PLA in fixed (3.6% paraformaldehyde), permeabilised MIA PaCa-2 (MP) cells; primary antibodies 1:100 overnight at 4 °C; PGRMC1 detected by anti-HA on exogenous PGRMC1-HA; controls: TSPO attenuation, no primary antibodies
[2] = molecular target: translocator protein (TSPO) (human (endogenous in MCF7 and MIA PaCa-2)) (UniProt P30536); assay: co-IP; MCF7 and shTMEM97MCF7 (TMEM97 knock-down) cell lysates in low-stringency lysis buffer (100 mM NaCl, 0.5% NP-40, 50 mM HEPES pH 7.5); anti-TSPO antibody with protein A/G PLUS agarose, 4 °C 2 h; Western blot with anti-TMEM97 or anti-PGRMC1; IgG as negative control
[3] = molecular target: translocator protein (TSPO) (human (endogenous in MCF7 and MIA PaCa-2)) (UniProt P30536); assay: co-IP; MIA PaCa-2 (MP) cell lysates in low-stringency lysis buffer (100 mM NaCl, 0.5% NP-40, 50 mM HEPES pH 7.5); anti-TSPO antibody with protein A/G PLUS agarose, 4 °C 2 h; Western blot with anti-TMEM97 or anti-PGRMC1; IgG as negative control; cells untreated or treated with 20S-OHC (24 h), 10 μM siramesine oxalate or FA10 (2 h)

binding [1]: binds
binding [2]: binds
binding [3]: binds
Substance: transmembrane protein 97 (TMEM97) (from UniProt Q5BJF2 1-176)
